Experimental data published in publication PMC12751231.

By UniProt entry, the sequences of proteins in these tests, tags left out.
UniProt Q61879: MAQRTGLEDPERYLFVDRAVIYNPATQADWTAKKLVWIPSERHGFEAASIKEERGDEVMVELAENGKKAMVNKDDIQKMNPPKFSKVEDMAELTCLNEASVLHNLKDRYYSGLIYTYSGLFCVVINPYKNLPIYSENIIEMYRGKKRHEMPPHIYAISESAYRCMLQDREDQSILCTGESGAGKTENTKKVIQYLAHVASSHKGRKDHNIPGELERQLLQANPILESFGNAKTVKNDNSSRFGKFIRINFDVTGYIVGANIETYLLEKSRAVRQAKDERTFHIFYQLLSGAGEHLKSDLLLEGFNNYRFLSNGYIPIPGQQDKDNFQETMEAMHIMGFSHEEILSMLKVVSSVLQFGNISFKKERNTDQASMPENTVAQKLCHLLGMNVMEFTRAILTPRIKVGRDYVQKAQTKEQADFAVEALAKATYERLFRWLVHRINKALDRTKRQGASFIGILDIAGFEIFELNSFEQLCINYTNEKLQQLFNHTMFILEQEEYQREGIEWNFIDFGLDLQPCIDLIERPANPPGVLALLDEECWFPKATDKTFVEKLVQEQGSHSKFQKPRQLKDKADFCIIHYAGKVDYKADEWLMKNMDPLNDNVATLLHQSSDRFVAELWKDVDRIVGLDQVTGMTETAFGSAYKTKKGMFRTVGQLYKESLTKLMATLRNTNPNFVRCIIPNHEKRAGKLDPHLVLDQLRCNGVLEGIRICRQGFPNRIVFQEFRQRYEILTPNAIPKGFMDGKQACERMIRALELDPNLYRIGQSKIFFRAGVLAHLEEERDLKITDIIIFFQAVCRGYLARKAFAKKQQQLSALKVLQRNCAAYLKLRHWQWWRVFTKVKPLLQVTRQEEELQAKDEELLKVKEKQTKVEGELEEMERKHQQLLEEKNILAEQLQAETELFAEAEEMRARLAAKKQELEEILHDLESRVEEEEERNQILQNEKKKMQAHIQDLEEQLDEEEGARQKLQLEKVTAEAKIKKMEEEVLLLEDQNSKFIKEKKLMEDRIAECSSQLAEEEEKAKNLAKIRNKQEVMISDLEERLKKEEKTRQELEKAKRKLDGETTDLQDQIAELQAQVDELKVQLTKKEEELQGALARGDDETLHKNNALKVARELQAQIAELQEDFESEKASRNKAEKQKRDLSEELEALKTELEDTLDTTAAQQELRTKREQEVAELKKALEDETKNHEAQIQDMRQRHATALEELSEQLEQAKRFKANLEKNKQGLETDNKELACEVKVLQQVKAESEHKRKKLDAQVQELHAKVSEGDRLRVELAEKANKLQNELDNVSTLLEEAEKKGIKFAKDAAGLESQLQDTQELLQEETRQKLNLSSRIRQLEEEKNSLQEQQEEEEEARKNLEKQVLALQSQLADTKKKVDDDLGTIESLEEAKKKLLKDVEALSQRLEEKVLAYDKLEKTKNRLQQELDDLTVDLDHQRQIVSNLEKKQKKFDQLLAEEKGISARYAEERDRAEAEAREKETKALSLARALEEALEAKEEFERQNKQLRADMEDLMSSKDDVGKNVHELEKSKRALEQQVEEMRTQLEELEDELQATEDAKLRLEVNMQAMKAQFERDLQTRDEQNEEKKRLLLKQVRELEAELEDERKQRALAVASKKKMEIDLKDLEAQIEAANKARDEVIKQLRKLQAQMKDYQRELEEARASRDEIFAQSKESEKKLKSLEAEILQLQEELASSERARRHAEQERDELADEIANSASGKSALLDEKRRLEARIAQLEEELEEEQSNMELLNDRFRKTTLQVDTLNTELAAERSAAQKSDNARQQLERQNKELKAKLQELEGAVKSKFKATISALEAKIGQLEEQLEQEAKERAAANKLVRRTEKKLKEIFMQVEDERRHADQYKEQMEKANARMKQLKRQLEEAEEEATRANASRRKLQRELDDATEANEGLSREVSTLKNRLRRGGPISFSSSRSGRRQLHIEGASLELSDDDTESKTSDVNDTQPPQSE

Biological target: T1, CFAP57 (cilia and flagella associated protein 57), mouse (mouse (endogenous in testis)) (UniProt Q9D180)
T1 sequence: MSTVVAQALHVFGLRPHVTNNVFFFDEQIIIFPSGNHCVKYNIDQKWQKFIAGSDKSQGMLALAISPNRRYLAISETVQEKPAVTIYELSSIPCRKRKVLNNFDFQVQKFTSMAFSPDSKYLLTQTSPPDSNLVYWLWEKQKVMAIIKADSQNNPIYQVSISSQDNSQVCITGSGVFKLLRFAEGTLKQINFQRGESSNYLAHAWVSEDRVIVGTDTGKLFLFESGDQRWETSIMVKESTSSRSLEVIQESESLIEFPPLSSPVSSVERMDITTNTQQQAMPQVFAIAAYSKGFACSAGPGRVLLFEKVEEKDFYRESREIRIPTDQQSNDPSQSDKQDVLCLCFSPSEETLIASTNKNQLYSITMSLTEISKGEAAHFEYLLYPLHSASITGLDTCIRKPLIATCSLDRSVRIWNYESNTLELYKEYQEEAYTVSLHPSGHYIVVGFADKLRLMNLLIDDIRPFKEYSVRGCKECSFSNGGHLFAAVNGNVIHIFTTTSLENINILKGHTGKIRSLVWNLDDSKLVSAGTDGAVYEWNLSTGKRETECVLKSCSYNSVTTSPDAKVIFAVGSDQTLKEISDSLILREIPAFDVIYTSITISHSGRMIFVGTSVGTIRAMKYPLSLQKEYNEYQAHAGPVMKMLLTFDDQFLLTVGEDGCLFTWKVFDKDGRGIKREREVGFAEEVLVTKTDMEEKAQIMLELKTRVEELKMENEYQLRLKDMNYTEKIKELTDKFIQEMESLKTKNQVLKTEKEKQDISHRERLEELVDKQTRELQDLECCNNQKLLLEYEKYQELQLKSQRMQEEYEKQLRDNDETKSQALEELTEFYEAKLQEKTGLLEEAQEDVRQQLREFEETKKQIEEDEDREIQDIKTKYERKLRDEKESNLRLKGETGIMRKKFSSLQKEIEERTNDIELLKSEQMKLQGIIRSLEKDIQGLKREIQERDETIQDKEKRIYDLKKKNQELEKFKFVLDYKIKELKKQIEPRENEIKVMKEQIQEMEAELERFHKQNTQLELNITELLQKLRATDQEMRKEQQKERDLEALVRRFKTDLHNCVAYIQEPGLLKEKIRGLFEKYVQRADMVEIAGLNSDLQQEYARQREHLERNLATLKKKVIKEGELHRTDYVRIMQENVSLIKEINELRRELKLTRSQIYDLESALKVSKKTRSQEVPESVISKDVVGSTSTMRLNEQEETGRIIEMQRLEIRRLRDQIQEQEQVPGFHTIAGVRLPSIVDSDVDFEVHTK
Experiment: affinity purification with mass spectrometry; WT and Cfap57^M/M mouse testis lysate (50 mM Tris-HCl pH 7.4, 150 mM NaCl, 1% NP-40, 1 mM EDTA, 0.1% SDS); anti-CFAP57 or IgG overnight at 4 °C, protein G agarose beads, five washes; SDS-PAGE, silver staining, in-gel trypsin digest, LC-MS/MS

| binding | Substance |
| --- | --- |
| binds | MYH10, a non-muscle myosin II isoform, mouse (from UniProt Q61879 1-1976) |
| binds | RAB1, mouse |

Results are given in words; binding and its absence hold for the method and conditions named. Binding seen in cells or lysates may run through a third protein. A yes stands for co-enrichment or nearness to the bait. Other partners may have been found. Tags and fused reporters may be left off the sequences shown.
